Test results published in article PMC4357451.
These are yes or no findings as the source states them, for the method shown. In cells and extracts the contact can be indirect. Some binding calls cover weakened binding; strength is not graded here. Tags and fused reporters may be left off the sequences shown.

Sequences of proteins named here, by UniProt entry; tags and fusion partners are left off.
UniProt F1LTE0: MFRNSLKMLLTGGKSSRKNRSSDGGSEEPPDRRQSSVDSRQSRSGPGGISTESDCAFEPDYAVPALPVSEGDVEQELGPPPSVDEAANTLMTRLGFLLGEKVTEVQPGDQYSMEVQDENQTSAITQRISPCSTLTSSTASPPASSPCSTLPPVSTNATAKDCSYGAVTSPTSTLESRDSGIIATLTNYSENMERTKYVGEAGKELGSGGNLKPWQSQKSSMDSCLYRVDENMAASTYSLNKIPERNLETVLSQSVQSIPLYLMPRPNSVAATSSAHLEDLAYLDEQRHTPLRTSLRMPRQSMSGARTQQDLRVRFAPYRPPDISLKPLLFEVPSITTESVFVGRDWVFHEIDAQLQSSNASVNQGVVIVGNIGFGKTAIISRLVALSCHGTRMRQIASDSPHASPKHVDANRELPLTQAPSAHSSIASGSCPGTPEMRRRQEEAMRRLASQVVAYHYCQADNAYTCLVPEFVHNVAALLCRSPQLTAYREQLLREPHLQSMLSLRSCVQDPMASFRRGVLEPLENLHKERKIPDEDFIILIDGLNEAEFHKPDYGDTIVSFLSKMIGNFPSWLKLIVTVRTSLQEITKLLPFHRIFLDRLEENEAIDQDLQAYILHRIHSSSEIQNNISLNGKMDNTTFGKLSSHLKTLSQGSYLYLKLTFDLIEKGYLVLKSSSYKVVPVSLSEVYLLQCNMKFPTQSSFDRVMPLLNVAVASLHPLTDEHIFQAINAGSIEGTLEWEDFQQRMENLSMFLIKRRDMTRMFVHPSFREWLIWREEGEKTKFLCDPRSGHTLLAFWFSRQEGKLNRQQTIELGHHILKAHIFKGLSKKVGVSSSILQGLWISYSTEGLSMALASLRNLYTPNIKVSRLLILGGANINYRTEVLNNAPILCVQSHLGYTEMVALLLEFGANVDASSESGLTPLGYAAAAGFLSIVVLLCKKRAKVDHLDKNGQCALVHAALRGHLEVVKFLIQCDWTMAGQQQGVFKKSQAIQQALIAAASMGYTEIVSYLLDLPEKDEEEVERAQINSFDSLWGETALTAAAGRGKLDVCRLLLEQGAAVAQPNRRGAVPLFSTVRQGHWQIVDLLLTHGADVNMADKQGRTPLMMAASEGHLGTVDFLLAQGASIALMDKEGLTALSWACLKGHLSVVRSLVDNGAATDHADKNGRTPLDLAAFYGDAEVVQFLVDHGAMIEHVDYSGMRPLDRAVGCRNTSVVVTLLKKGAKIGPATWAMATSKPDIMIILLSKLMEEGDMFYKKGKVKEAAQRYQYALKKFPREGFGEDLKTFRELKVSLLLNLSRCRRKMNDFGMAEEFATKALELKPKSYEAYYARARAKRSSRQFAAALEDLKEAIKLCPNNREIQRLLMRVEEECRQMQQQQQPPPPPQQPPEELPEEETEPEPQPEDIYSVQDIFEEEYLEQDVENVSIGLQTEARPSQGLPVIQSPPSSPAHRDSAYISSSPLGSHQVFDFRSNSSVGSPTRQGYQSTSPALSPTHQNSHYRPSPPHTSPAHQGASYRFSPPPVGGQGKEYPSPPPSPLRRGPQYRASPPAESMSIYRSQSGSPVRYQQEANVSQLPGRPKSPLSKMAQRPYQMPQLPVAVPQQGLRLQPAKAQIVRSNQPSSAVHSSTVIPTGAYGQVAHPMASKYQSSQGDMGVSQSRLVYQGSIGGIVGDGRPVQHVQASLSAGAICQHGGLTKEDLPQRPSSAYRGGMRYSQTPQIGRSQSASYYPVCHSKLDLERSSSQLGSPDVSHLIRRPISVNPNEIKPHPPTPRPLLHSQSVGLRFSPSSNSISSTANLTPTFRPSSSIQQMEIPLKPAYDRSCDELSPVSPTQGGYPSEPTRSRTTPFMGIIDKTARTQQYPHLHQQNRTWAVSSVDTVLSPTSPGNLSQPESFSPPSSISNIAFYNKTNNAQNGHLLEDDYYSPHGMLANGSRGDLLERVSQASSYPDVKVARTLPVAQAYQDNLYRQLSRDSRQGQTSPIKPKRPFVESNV

B1: Bcr, endogenous in PC12 cells (protein, UniProt F1LXF1 1-1270)
chain: MVDSVGFAEAWRAQFPDSEPPRMELRSVGDIEQELERCKASIRRLEQEVNQERFRMIYLQTLLAKEKKSYDRQRWGFRRAAQPPDGAAEPRASAPRLPPAPADGADPAPVEESEARPDGEGSPSKGRPATARRPAAAAPADRDDRGPPTSVAALRSNFEKIRKGPAQPGSADAEKPFYVNVEFHHERGLVKVNDKEVSDRISSLGSQAMQMERKKSQQSAGQGLGEAPRPHYRGRSSESSCGLDGDYEDAELNPRFLKDNLINANGGNRPPWPPLEYQPYQSIYVGGMMVEGEGKSPLLRSQSTSEQEKRLTWPRRSYSPRSFEDSGGGYTPDCSSNENLTSSEEDFSSGQSSRVSPSPTTYRMFRDKSRSPSQNSQQSFDSSSPPTPQCQKRHRQCQVVVSEATIVGVRKTGQIWPSDGDSTFQGEADSSFGTPPGYGCAADQAEEQRRHQDGLPYIDDSPSSSPHLSSKGRGSPASGALEPTKASELDLEKGLEMRKWVLSGILASEETYLSHLEALLLPMKPLKAAATTSQPVLTSQQIETIFFKVPELYEIHKEFYDGLFPRVQQWSHQQRVGDLFQKLASQLGVYRAFVDNYGVAMETAEKCCQANAQFAEISENLRARSNKDVKDSTTKNSLETLLYKPVDRVTRSTLVLHDLLKHTPSSHPDHSLLQDALRISQNFLSSINEEITPRRQSMTVKKGEHRQLLKDSFMVELVEGARKLRHIFLFTDLLLCTKLKKQSGGKTQQYDCKWYIPLTDLSFQMVDELEALPNIPLVPDEELDALKIKISQIKSDIQREKRANKGSKVMERLRKKLSEQESLLLLMSPSMAFRVHSRNGKSYTFLISSDYERAEWRESIREQQKKCFKSFSLTSVELQMLTNSCVKLQTVHHIPLTINKEDDESPGLYGFLHAIVHSATGFKQSSNLYCTLEVDSFGYFVNKAKTRVYRDTTEPNWNEEFEIELEGSQTLRILCYEKCYNKMKMAKEDGESADKLMGKGQVQLDPQTLQDRDWQRTVIDMNGIEVKLSVKFTSREFSLKRMPSRKQTGVFGVKIAVVTKRERSKVPYIVRQCVEEIERRGMEEVGIYRVSGVATDIQALKAAFDVNNKDVSVMMSEMDVNAIAGTLKLYFRELPEPLFTDEFYPNFAEGIALSDPVAKESCMLNLLLSLPEANLLTFLFLLDHLKRVAEKETVNKMSLHNLATVFGPTLLRPSEKESKLPANPSQPITMTDSWSLEVMSQVQVLLYFLQLEAIPAPDSKRQSILFSTEV
B2: Flag-CPRICKLE1 (C-terminus of PRICKLE1, aa 314 to 831) (domain or fragment, UniProt Q96MT3 314-831)
chain: ASDSSDSAFQSARSRDSRRSVRMGKSSRSADQCRQSLLLSPALNYKFPGLSGNADDTLSRKLDDLSLSRQGTSFASEEFWKGRVEQETPEDPEEWADHEDYMTQLLLKFGDKSLFQPQPNEMDIRASEHWISDNMVKSKTELKQNNQSLASKKYQSDMYWAQSQDGLGDSAYGSHPGPASSRRLQELELDHGASGYNHDETQWYEDSLECLSDLKPEQSVRDSMDSLALSNITGASVDGENKPRPSLYSLQNFEEMETEDCEKMSNMGTLNSSMLHRSAESLKSLSSELCPEKILPEEKPVHLPVLRRSKSQSRPQQVKFSDDVIDNGNYDIEIRQPPMSERTRRRVYNFEERGSRSHHHRRRRSRKSRSDNALNLVTERKYSPKDRLRLYTPDNYEKFIQNKSAREIQAYIQNADLYGQYAHATSDYGLQNPGMNRFLGLYGEDDDSWCSSSSSSSDSEEEGYFLGQPIPQPRPQRFAYYTDDLSSPPSALPTPQFGQRTTKSKKKKGHKGKNCIIS
B3: Flag-CPRICKLE2 (C-terminus of PRICKLE2, aa 318 to 844) (domain or fragment, UniProt Q7Z3G6 318-844)
chain: GSDSSDSAFQNARAKESRRSAKIGKNKGKTEEPMLNQHSQLQVSSNRLSADVDPLSLQMDMLSLSSQTPSLNRDPIWRSREEPYHYGNKMEQNQTQSPLQLLSQCNIRTSYSPGGQGAGAQPEMWGKHFSNPKRSSSLAMTGHAGSFIKECREDYYPGRLRSQESYSDMSSQSFSETRGSIQVPKYEEEEEEEGGLSTQQCRTRHPISSLKYTEDMTPTEQTPRGSMESLALSNATGLSADGGAKRQEHLSRFSMPDLSKDSGMNVSEKLSNMGTLNSSMQFRSAESVRSLLSAQQYQEMEGNLHQLSNPIGYRDLQSHGRMHQSFDFDGGMAGSKLPGQEGVRIQPMSERTRRRATSRDDNRRFRPHRSRRSRRSRSDNALHLASEREAISRLKDRPPLRAREDYDQFMRQRSFQESMGHGSRRDLYGQCPRTVSDLALQNAFGDRWGPYFAEYDWCSTCSSSSESDNEGYFLGEPIPQPARLRYVTSDELLHKYSSYGLPKSSTLGGRGQLHSRKRQKSKNCIIS

Key:
GFP-PRICKLE1 (human) = target: T1, GFP-PRICKLE1 (human) (UniProt Q96MT3); experiment: co-IP; GFP immunoprecipitates from differentiated PC12 lines expressing GFP, GFP-PRICKLE1 or GFP-PRICKLE2, immunoblotted with anti-BCR, anti-TANC2 and anti-USP9X for the endogenous proteins
T1 sequence: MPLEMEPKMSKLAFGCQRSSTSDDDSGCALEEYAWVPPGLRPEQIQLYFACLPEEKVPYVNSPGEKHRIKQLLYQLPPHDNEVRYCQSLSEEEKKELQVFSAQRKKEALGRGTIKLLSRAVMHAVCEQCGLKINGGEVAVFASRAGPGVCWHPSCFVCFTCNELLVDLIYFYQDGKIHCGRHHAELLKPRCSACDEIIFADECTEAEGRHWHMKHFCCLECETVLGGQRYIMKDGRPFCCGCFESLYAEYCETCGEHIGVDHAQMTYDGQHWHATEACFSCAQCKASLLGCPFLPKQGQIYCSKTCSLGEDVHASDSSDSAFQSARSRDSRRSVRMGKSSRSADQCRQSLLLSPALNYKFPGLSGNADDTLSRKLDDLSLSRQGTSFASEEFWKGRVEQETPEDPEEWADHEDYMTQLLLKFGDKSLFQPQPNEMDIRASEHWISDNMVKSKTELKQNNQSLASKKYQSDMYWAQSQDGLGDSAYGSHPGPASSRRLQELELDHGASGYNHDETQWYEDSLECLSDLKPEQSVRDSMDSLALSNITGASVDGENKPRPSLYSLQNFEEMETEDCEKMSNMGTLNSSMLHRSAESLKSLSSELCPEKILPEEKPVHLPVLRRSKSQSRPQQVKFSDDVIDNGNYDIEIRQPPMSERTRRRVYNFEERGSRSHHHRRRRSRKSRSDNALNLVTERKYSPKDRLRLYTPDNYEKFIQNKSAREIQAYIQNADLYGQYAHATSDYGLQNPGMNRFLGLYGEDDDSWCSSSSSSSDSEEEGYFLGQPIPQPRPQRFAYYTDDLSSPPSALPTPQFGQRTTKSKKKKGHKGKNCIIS

GFP-PRICKLE2 (human) = target: T2, GFP-PRICKLE2 (human) (UniProt Q7Z3G6); experiment: as above
T2 sequence: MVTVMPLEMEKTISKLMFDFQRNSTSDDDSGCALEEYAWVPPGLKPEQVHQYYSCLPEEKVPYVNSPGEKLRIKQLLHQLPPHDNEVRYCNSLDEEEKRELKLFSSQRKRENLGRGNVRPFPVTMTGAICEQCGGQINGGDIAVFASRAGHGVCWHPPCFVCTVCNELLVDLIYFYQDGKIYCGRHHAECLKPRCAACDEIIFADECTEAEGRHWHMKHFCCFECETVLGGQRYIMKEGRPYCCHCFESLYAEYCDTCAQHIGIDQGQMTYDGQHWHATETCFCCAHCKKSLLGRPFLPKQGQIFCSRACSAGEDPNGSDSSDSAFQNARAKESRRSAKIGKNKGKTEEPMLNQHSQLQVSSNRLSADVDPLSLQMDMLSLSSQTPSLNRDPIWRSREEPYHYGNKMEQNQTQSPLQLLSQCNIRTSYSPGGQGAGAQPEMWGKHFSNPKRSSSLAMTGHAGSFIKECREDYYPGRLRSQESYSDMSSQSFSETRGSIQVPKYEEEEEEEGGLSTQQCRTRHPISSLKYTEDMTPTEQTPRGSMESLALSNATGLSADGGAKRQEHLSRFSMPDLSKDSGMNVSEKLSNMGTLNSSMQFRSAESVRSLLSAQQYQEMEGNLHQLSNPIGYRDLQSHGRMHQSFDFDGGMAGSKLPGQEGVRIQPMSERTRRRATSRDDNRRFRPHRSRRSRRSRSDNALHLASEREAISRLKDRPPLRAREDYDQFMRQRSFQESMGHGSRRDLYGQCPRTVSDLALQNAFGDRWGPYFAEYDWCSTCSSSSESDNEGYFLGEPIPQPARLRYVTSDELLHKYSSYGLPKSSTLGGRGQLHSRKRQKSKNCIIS

[1] = target: T3, C2Usp9x (carboxy terminal amino acids 2102-2560 of murine Usp9x) (mouse) (UniProt P70398); experiment: co-IP; HEK293T co-expressing a PRICKLE1 or PRICKLE2 c-terminal fragment with a Usp9x deletion fragment (C1 or C2); complexes immunoprecipitated via the Flag tag
T3 sequence: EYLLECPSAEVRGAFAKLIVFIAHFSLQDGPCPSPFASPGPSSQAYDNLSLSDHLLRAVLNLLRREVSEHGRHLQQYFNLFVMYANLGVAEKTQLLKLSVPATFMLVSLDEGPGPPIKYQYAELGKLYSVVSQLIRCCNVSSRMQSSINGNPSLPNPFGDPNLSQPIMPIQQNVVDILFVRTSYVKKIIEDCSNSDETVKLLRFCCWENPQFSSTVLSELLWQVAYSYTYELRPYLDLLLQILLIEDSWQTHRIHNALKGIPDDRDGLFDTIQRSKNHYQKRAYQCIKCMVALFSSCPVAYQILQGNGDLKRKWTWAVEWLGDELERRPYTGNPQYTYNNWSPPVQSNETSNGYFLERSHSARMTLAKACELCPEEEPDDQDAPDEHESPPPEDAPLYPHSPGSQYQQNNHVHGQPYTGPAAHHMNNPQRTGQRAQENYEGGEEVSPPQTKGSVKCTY

| Molecule | binding (GFP-PRICKLE1 (human)) | binding (GFP-PRICKLE2 (human)) | binding [1] |
| --- | --- | --- | --- |
| Tanc2, endogenous in PC12 cells (from UniProt F1LTE0 1-1992) | binds | binds |  |
| B1 | binds | binds |  |
| B2 |  |  | binds |
| B3 |  |  | binds |
